These are yes or no findings as the source states them, for the method shown. Binding seen in cells or lysates may run through a third protein.
Molecular target: SP1 (human (endogenous in FaDu and HK-1)), P08047
Assay: co-IP; 800 ug lysate of FaDu and HK-1 cells (50 mM Tris pH 7.6, 150 mM NaCl, 0.5% Triton-X100, 0.1% Nonidet P-40) incubated with 5 ug anti-SP1 or normal rabbit IgG overnight at 4 C, Dynabeads Protein G, immunoblot
Settings: remark: other sources report otherwise

B1: HDAC4, P56524 1-1084 (enzyme)
chain: MSSQSHPDGLSGRDQPVELLNPARVNHMPSTVDVATALPLQVAPSAVPMDLRLDHQFSLPVAEPALREQQLQQELLALKQKQQIQRQILIAEFQRQHEQLSRQHEAQLHEHIKQQQEMLAMKHQQELLEHQRKLERHRQEQELEKQHREQKLQQLKNKEKGKESAVASTEVKMKLQEFVLNKKKALAHRNLNHCISSDPRYWYGKTQHSSLDQSSPPQSGVSTSYNHPVLGMYDAKDDFPLRKTASEPNLKLRSRLKQKVAERRSSPLLRRKDGPVVTALKKRPLDVTDSACSSAPGSGPSSPNNSSGSVSAENGIAPAVPSIPAETSLAHRLVAREGSAAPLPLYTSPSLPNITLGLPATGPSAGTAGQQDAERLTLPALQQRLSLFPGTHLTPYLSTSPLERDGGAAHSPLLQHMVLLEQPPAQAPLVTGLGALPLHAQSLVGADRVSPSIHKLRQHRPLGRTQSAPLPQNAQALQHLVIQQQHQQFLEKHKQQFQQQQLQMNKIIPKPSEPARQPESHPEETEEELREHQALLDEPYLDRLPGQKEAHAQAGVQVKQEPIESDEEEAEPPREVEPGQRQPSEQELLFRQQALLLEQQRIHQLRNYQASMEAAGIPVSFGGHRPLSRAQSSPASATFPVSVQEPPTKPRFTTGLVYDTLMLKHQCTCGSSSSHPEHAGRIQSIWSRLQETGLRGKCECIRGRKATLEELQTVHSEAHTLLYGTNPLNRQKLDSKKLLGSLASVFVRLPCGGVGVDSDTIWNEVHSAGAARLAVGCVVELVFKVATGELKNGFAVVRPPGHHAEESTPMGFCYFNSVAVAAKLLQQRLSVSKILIVDWDVHHGNGTQQAFYSDPSVLYMSLHRYDDGNFFPGSGAPDEVGTGPGVGFNVNMAFTGGLDPPMGDAEYLAAFRTVVMPIASEFAPDVVLVSSGFDAVEGHPTPLGGYNLSARCFGYLTKQLMGLAGGRIVLALEGGHDLTAICDASEACVSALLGNELDPLPEKVLQQRPNANAVRSMEKVMEIHSKYWRCLQRTTSTAGRSLIEAQTCENEEAETVTAMASLSVGVKPAEKRPDEEPMEEEPPL
  binding: no binding
